# No constants are given. Whether binding was seen depends on the method and setting. In cells and extracts the contact can be indirect. Some binding calls cover weakened binding; strength is not graded here. For some assays here: Sequences can lack the tags named with a protein.
# B1: Flag-tagged full-length MAGI3 (protein, UniProt Q5TCQ9 1-1481)
# chain: MSKTLKKKKHWLSKVQECAVSWAGPPGDFGAEIRGGAERGEFPYLGRLREEPGGGTCCVVSGKAPSPGDVLLEVNGTPVSGLTNRDTLAVIRHFREPIRLKTVKPGKVINKDLRHYLSLQFQKGSIDHKLQQVIRDNLYLRTIPCTTRAPRDGEVPGVDYNFISVEQFKALEESGALLESGTYDGNFYGTPKPPAEPSPFQPDPVDQVLFDNEFDAESQRKRTTSVSKMERMDSSLPEEEEDEDKEAINGSGNAENRERHSESSDWMKTVPSYNQTNSSMDFRNYMMRDETLEPLPKNWEMAYTDTGMIYFIDHNTKTTTWLDPRLCKKAKAPEDCEDGELPYGWEKIEDPQYGTYYVDHLNQKTQFENPVEEAKRKKQLGQVEIGSSKPDMEKSHFTRDPSQLKGVLVRASLKKSTMGFGFTIIGGDRPDEFLQVKNVLKDGPAAQDGKIAPGDVIVDINGNCVLGHTHADVVQMFQLVPVNQYVNLTLCRGYPLPDDSEDPVVDIVAATPVINGQSLTKGETCMNPQDFKPGAMVLEQNGKSGHTLTGDGLNGPSDASEQRVSMASSGSSQPELVTIPLIKGPKGFGFAIADSPTGQKVKMILDSQWCQGLQKGDIIKEIYHQNVQNLTHLQVVEVLKQFPVGADVPLLILRGGPPSPTKTAKMKTDKKENAGSLEAINEPIPQPMPFPPSIIRSGSPKLDPSEVYLKSKTLYEDKPPNTKDLDVFLRKQESGFGFRVLGGDGPDQSIYIGAIIPLGAAEKDGRLRAADELMCIDGIPVKGKSHKQVLDLMTTAARNGHVLLTVRRKIFYGEKQPEDDSSQAFISTQNGSPRLNRAEVPARPAPQEPYDVVLQRKENEGFGFVILTSKNKPPPGVIPHKIGRVIEGSPADRCGKLKVGDHISAVNGQSIVELSHDNIVQLIKDAGVTVTLTVIAEEEHHGPPSGTNSARQSPALQHRPMGQSQANHIPGDRSALEGEIGKDVSTSYRHSWSDHKHLAQPDTAVISVVGSRHNQNLGCYPVELERGPRGFGFSLRGGKEYNMGLFILRLAEDGPAIKDGRIHVGDQIVEINGEPTQGITHTRAIELIQAGGNKVLLLLRPGTGLIPDHGDWDINNPSSSNVIYDEQSPLPPSSHFASIFEESHVPVIEESLRVQICEKAEELKDIVPEKKSTLNENQPEIKHQSLLQKNVSKRDPPSSHGHSNKKNLLKVENGVTRRGRSVSPKKPASQHSEEHLDKIPSPLKNNPKRRPRDQSLSPSKGENKSCQVSTRAGSGQDQCRKSRGRSASPKKQQKIEGSKAPSNAEAKLLEGKSRRIAGYTGSNAEQIPDGKEKSDVIRKDAKQNQLEKSRTRSPEKKIKRMVEKSLPSKMTNKTTSKEVSENEKGKKVTTGETSSSNDKIGENVQLSEKRLKQEPEEKVVSNKTEDHKGKELEAADKNKETGRFKPESSSPVKKTLITPGPWKVPSGNKVTGTIGMAEKRQ
# B2: endogenous MAGI3 of mouse kidney (protein, UniProt Q9EQJ9 1-1476)
# chain: MSKTLKKKKHWLSKVQECAVSWAGPPGDLGAEIRGGAERGEFPYLGRLRDEAGGGGGTCCVVSGKAPSPGDVLLEVNGTPVSGLTNRDTLAVIRHFREPIRLKTVKPGKVINKDLRHYLSLQFQKGSIDHKLQQVIRDNLYLRTIPCTTRAPRDGEVPGVDYNFISVEQFKALEESGALLESGTYDGNFYGTPKPPAEPSPFQPDPVDQVLFDNEFDTESQRKRTTSVSKMERMDSSLPEEEEDEDKEAVNGSGSMETREMHSETSDCWMKTVPSYNQTNSSMDFRNYMMRDENLEPLPKNWEMAYTDTGMIYFIDHNTKTTTWLDPRLCKKAKAPEDCEDGELPYGWEKIEDPQYGTYYVDHLNQKTQFENPVEEAKRKKQLGQAEIHSAKTDVERAHFTRDPSQLKGVLVRASLKKSTMGFGFTIIGGDRPDEFLQVKNVLKDGPAAQDGKIAPGDVIVDINGNCVLGHTHADVVQMFQLVPVNQYVNLTLCRGYPLPDDSEDPVVDIVAATPVINGQSLTKGETCMNTQDFKLGAMVLDQNGKSGQILASDRLNGPSESSEQRASLASSGSSQPELVTIPLIKGPKGFGFAIADSPTGQKVKMILDSQWCQGLQKGDIIKEIYHQNVQNLTHLQVVEVLKQFPVGADVPLLILRGGPCSPTKTAKTKTDTKENSGSLETINEPIPQPMPFPPSIIRSGSPKLDPSEVYLKSKTLYEDKPPNTKDLDVFLRKQESGFGFRVLGGDGPDQSIYIGAIIPLGAAEKDGRLRAADELMCIDGIPVKGKSHKQVLDLMTTAARNGHVLLTVRRKIFYGEKQPEDESHQAFSQNGSPRLNRAELPTRSAPQEAYDVTLQRKENEGFGFVILTSKSKPPPGVIPHKIGRVIDGSPADRCGGLKVGDHISAVNGQSIVDLSHDNIVQLIKDAGVTVTLTVVAEEEHHGPPSGTNSARQSPALQHRPMGQAQANHIPGDRIALEGEIGRDVCSSYRHSWSDHKHLAQPDTAVISVVGSRHNQSLGCYPVELERGPRGFGFSLRGGKEYNMGLFILRLAEDGPAIKDGRIHVGDQIVEINGEPTQGITHTRAIELIQAGGNKVLLLLRPGTGLIPDHGDWDTNSPSSSNVIYDEQPPPLPSSHSASTFEESHVPATEDSLTRVQICEKAEELKDTVQEKKSTLNGSQPEMKYQSVHKTMSKKDPPRGSGHGEKSRLKGENGVTRRGRSASPKKSVNRHSEEHLEKIPRPLKSDPKEKSRDRSLSPRKGESKGRLTIKAGSGQDPYRKDRGRSSSPKKQQKIGGNSLSNTEGKLSEAGSRRAAGHPRDSTEQLPDGREKSGVSRKDLKQSQPGKTRTKSPEKKSSKVDETSLPSKKTSSTAGRVVSEKEKGKKPTAGETSRETVEHTQISAKQLKQEAQEKTALGNADDHKGRESEVTDRCRERAGCTPQSSSLVKKAPITPGPWRVPRANKVTGTTGMADKQL
# Tests used:
# [1] = molecular target: T1, GFP-tagged full-length wild-type MAS receptor (UniProt P04201); assay: co-IP; COS-7 cells transfected with GFP-MAS WT or GFP-MAS V325A with or without Flag-MAGI3, Western blot
# T1 sequence: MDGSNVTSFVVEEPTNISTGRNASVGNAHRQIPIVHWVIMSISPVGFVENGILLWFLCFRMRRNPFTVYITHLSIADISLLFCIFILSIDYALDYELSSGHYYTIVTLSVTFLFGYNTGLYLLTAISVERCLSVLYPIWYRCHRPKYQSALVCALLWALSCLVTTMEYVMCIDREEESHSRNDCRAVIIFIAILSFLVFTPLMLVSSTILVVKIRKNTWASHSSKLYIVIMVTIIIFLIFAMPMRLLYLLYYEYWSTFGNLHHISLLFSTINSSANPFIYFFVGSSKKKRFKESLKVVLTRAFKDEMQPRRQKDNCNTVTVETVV
# [2] = molecular target: T2, endogenous MAS receptor of mouse kidney (mouse (endogenous in kidney tissue)) (UniProt P30554); assay: co-IP; endogenous proteins in mouse kidney tissue
# T2 sequence: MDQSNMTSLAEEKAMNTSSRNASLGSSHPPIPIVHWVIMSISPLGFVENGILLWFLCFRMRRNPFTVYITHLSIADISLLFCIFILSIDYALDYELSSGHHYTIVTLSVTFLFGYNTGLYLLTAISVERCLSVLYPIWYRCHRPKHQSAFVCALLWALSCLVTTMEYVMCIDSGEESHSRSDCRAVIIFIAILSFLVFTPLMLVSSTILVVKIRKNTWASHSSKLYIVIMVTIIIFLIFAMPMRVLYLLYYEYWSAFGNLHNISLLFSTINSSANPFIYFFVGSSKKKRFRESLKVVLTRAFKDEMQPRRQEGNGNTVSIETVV
Binder,binding [1],binding [2]
B1,binds,–
B2,–,binds
